Measured values published in PMC12171025.

Chains of the proteins cited; added tags and fusions are not shown. Lines headed by an entry give the natural chain unless they say otherwise; changes in a name come on top.
UniProt Q9BSJ6: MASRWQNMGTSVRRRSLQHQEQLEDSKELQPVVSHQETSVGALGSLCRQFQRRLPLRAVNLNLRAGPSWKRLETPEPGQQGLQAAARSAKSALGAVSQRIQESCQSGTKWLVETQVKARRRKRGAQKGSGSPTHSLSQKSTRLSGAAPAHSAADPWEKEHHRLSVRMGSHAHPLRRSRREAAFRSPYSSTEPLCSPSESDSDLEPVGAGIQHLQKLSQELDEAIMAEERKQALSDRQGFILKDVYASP
UniProt Q9UNE7: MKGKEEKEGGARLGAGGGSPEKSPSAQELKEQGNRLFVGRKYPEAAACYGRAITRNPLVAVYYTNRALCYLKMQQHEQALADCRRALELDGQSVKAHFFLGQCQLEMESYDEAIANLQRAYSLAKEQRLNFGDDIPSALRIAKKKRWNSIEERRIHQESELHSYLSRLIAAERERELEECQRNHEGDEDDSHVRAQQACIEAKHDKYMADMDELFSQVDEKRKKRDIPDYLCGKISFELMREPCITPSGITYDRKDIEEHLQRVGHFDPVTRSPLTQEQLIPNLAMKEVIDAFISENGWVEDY
UniProt Q15672: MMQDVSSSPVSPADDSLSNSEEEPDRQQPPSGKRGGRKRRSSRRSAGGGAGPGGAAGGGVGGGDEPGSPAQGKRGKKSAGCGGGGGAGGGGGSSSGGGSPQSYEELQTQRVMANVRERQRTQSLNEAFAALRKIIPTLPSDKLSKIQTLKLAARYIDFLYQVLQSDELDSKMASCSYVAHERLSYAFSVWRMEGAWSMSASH

Molecular target: FAM64A (human (endogenous in A2780)) (UniProt Q9BSJ6)
Assay: co-IP; A2780 cell lysates (500 ug) in RIPA buffer, overnight at 4°C with anti-FAM64A antibody (2 ug) and protein G agarose beads; IgG as negative control; TWIST1 and STUB1 detected by western blot

Row | Substance | binding
1 | STUB1 (STIP1 homology and U-box containing protein 1) (from UniProt Q9UNE7 1-303) (enzyme) | binds
2 | TWIST1 (from UniProt Q15672 1-202) | no binding

Results are given in words; binding and its absence hold for the method and conditions named. Binding seen in cells or lysates may run through a third protein. Binding can be weak; no strength is given.
